From publication PMC8931120
Results are given in words; binding and its absence hold for the method and conditions named. In cells and extracts the contact can be indirect. Some results given as binding are weak or reduced against the parent protein; the word gives no strength.

Amino acid sequences for entries named in this document (tags omitted).
UniProt Q676U5: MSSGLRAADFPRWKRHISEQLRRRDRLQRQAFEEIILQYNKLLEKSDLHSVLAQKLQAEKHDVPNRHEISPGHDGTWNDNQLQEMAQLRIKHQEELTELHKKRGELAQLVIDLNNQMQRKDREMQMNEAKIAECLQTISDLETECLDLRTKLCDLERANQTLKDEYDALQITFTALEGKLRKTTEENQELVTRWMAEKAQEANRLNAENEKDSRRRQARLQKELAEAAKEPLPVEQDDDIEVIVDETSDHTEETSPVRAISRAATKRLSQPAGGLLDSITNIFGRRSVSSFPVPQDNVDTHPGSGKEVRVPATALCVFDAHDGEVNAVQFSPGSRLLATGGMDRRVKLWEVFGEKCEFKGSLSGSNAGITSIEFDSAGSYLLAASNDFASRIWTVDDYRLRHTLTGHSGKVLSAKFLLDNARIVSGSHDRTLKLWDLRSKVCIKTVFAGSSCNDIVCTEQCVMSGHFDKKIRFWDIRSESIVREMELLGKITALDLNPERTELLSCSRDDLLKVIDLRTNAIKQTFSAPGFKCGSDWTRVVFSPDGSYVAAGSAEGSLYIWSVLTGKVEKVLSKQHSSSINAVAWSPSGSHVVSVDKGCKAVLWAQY
UniProt Q9H1Y0: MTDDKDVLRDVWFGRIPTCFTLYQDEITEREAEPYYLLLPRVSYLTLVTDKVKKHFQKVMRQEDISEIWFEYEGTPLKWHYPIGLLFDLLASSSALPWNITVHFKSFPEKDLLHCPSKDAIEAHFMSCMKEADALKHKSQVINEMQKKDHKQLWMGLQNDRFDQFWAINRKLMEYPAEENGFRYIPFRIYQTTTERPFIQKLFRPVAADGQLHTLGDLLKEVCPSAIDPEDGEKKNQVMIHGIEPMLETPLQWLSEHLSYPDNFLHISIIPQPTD
UniProt O94817: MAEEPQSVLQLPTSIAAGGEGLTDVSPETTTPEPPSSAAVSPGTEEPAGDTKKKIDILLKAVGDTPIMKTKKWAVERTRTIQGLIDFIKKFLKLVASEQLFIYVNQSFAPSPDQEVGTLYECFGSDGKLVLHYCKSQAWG
UniProt A5YKK6: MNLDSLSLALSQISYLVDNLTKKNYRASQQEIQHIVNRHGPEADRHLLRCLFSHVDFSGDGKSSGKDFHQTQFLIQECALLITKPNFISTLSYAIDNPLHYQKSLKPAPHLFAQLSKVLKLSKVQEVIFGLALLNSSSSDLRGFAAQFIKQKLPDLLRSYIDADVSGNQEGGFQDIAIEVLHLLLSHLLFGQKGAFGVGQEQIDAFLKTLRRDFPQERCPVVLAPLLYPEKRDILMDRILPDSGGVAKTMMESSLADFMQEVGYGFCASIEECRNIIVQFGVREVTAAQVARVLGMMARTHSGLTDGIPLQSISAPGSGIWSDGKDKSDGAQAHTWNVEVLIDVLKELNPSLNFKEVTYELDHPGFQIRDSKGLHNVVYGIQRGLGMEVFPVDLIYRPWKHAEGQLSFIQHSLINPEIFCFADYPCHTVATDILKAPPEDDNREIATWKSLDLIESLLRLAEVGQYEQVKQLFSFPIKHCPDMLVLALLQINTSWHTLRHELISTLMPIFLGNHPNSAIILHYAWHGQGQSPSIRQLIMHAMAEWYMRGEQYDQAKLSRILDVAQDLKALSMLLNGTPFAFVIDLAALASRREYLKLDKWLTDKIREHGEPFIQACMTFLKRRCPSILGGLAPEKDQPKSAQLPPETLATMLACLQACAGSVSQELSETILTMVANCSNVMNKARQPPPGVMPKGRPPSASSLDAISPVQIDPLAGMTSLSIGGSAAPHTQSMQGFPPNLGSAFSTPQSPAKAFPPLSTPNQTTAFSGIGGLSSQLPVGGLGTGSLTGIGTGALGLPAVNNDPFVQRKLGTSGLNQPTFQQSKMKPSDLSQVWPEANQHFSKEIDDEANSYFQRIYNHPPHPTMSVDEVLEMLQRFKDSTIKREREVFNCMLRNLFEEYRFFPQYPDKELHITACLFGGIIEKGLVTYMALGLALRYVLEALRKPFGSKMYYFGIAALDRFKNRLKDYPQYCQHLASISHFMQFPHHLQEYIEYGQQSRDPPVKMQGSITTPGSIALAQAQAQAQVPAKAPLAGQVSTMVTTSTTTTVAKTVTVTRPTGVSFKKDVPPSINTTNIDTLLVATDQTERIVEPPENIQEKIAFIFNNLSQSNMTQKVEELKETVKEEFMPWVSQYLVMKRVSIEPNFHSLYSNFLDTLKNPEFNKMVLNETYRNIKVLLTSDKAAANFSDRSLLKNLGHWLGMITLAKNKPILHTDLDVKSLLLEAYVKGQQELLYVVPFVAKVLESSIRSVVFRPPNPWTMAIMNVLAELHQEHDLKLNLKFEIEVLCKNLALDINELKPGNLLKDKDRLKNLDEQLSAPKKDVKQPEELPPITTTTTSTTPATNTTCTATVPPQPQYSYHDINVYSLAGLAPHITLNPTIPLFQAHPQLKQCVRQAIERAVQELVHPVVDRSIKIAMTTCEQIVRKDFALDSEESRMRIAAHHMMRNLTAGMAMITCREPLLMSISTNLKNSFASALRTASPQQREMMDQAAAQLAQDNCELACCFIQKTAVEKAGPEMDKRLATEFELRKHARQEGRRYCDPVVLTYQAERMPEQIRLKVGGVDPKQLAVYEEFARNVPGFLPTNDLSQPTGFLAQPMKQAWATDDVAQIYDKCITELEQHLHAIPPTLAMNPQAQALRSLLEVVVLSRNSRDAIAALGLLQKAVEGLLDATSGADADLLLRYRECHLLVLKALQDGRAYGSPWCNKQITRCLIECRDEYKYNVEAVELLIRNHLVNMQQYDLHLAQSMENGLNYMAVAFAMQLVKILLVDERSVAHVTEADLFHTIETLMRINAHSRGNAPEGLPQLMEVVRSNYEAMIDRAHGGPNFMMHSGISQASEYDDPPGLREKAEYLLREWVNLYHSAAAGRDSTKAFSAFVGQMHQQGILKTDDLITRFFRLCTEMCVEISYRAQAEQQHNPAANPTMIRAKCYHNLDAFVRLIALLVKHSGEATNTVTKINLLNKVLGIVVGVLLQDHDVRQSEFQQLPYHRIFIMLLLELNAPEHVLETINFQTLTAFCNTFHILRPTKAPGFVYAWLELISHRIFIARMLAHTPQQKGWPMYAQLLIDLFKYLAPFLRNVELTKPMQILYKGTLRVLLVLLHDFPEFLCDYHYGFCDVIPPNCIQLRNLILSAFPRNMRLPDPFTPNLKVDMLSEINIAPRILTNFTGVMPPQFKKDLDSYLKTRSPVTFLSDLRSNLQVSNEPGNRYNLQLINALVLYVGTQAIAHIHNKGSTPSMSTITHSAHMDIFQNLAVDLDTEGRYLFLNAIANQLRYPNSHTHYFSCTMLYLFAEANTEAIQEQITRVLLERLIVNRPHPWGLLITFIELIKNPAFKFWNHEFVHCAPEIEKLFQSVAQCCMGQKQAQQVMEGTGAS
UniProt Q9UIV1: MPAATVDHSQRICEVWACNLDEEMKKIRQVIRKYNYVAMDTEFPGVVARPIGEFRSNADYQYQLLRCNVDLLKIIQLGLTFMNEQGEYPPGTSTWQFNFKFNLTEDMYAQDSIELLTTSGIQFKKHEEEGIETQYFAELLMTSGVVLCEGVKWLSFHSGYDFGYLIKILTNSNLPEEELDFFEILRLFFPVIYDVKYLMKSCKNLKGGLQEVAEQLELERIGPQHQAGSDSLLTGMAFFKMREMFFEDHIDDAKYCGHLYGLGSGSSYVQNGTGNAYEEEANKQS

Experiments:
Test in all cases: co-IP; HEK293T transfected with FLAG, FLAG-ATG5, FLAG-ATG12 or FLAG-ATG16L1, treated with Rapa + CQ for 12 h; IP of total cell extracts with anti-FLAG antibody; western blotting of endogenous CNOT1 and CNOT7
FLAG-ATG16L1 = FLAG-ATG16L1 (UniProt Q676U5)
FLAG-ATG5 = FLAG-ATG5 (UniProt Q9H1Y0)
FLAG-ATG12 = FLAG-ATG12 (UniProt O94817)

binding (FLAG-ATG16L1)	binding (FLAG-ATG5)	binding (FLAG-ATG12)	Substance
binds	binds	binds	CNOT1, the largest component of the CCR4-NOT deadenylase complex (from UniProt A5YKK6 1-2376)
binds	binds	binds	CNOT7, deadenylase component of the CCR4-NOT complex (from UniProt Q9UIV1 1-285)
